Reference: article PMC6773851, “Identification of protein-protein and ribonucleoprotein complexes containing Hfq” (Scientific Reports, 2019)

The chains behind the UniProt entries cited, without tags or fusion partners. Where a name states a change or a piece, a line headed by the entry shows the natural chain unless it says otherwise.
UniProt P0A6X3: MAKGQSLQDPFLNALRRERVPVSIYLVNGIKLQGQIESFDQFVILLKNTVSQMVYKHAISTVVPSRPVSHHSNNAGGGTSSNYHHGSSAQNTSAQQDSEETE
UniProt P0A6Y8: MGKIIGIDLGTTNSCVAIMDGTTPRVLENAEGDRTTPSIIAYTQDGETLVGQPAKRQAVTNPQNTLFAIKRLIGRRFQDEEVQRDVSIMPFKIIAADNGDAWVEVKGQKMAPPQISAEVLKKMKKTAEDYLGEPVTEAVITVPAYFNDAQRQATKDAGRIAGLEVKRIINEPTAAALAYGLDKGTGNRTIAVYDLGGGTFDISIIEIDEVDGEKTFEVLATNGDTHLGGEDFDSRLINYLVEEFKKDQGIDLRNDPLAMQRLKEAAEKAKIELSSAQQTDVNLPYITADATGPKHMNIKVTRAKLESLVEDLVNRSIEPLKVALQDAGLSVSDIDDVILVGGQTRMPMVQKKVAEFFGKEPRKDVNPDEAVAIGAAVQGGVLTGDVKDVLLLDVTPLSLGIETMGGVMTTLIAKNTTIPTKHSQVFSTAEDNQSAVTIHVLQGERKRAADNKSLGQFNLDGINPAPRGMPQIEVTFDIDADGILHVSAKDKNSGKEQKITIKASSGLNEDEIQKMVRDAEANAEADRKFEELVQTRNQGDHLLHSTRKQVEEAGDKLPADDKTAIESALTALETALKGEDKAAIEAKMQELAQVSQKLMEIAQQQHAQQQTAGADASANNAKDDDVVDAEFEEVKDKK
UniProt P0A853: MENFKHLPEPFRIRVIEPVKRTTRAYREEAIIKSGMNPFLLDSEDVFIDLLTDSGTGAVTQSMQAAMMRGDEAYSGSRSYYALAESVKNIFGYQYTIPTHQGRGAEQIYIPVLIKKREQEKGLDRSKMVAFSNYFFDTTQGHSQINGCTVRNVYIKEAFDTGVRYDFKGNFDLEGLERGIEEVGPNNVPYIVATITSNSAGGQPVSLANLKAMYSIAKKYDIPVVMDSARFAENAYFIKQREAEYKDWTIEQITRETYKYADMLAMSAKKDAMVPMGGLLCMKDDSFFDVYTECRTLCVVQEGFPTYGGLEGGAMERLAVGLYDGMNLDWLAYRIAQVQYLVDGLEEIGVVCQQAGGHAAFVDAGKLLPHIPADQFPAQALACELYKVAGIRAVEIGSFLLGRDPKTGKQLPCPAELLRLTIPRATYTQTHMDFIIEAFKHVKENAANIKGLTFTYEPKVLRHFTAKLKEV
UniProt P0ABK5: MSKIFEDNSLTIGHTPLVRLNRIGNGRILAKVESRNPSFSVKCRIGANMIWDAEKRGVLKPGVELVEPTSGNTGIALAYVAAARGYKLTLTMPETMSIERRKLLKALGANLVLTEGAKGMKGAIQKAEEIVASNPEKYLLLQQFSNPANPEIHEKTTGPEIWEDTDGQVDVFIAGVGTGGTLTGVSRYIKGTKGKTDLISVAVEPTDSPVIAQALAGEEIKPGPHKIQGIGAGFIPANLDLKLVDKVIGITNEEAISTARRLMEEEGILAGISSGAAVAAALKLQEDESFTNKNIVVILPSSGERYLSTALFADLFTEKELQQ
UniProt P0ABB0: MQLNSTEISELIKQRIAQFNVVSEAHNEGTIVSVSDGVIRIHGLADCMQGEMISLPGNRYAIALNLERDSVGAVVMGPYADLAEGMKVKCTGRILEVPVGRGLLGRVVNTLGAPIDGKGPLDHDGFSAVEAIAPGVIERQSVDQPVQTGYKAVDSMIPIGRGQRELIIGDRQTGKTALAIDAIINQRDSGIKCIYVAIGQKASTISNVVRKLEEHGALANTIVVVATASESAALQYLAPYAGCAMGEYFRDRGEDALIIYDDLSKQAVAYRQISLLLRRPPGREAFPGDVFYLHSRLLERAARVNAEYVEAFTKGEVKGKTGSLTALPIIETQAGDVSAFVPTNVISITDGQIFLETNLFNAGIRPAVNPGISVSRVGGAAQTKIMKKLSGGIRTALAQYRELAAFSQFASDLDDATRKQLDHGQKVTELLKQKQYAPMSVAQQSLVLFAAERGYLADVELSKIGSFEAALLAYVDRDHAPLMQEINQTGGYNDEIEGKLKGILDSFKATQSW
UniProt P0AFZ3: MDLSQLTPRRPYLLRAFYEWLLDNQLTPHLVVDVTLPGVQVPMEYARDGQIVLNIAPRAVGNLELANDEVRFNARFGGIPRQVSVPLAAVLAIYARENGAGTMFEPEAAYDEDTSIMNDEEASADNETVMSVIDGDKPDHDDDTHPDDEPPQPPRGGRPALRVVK
UniProt P0ACF0: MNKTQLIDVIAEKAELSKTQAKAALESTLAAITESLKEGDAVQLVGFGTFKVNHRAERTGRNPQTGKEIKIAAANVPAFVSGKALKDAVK
UniProt P0AFG8: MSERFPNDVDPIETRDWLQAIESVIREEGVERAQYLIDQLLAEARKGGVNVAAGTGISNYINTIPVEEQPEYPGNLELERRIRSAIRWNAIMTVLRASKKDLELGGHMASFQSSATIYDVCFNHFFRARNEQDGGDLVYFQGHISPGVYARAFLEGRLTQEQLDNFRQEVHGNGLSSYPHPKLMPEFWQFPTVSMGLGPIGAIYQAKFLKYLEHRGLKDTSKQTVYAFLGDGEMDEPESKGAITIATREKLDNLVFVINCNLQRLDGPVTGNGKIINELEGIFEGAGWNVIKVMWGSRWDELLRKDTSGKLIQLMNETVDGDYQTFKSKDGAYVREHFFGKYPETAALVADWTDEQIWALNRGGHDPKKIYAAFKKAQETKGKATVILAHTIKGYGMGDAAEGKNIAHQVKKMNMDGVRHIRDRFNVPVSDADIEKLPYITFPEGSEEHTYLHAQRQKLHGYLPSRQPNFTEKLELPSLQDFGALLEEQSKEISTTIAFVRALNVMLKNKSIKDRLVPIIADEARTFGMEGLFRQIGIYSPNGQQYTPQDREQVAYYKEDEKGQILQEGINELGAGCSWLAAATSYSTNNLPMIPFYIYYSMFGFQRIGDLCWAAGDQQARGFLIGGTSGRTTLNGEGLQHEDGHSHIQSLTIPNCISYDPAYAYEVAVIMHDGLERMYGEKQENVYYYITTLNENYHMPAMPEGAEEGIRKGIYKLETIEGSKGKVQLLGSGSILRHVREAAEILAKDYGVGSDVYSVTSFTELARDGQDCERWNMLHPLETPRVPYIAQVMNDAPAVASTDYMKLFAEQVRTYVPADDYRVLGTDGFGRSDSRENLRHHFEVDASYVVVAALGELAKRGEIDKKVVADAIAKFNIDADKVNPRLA
UniProt P0A7G6: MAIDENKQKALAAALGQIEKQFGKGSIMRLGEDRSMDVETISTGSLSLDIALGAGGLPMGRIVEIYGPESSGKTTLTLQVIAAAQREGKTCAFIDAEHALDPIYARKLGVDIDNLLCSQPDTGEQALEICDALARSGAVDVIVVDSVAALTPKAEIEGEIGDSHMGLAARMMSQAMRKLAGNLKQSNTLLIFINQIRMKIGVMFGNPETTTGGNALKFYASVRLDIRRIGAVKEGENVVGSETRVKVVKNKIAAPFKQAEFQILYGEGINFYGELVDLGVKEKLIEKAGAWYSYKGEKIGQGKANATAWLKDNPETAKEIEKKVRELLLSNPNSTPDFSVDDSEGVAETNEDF
UniProt P0CE47: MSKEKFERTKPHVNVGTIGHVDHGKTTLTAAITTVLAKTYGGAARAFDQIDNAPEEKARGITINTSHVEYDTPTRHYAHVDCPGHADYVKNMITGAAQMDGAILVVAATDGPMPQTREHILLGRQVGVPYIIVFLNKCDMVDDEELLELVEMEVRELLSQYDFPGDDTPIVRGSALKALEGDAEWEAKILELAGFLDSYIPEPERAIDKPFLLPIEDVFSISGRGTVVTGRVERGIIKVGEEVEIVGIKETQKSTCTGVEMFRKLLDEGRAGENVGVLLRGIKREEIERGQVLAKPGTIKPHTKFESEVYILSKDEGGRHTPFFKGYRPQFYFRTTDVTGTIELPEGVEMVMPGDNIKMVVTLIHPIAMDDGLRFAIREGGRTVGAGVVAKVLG
UniProt P0ABB4: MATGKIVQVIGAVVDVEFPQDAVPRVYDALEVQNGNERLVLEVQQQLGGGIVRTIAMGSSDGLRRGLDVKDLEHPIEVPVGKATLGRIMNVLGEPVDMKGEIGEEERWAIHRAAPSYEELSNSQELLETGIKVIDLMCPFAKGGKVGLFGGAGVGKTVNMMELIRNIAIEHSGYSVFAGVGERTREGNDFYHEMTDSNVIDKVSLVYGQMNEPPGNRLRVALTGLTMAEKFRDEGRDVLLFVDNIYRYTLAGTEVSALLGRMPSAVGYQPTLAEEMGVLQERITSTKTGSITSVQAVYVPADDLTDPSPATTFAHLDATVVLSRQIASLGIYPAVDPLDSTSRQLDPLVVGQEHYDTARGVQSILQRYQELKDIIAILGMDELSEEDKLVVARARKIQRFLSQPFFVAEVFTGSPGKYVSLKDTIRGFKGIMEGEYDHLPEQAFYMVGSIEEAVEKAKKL
UniProt P0AES4: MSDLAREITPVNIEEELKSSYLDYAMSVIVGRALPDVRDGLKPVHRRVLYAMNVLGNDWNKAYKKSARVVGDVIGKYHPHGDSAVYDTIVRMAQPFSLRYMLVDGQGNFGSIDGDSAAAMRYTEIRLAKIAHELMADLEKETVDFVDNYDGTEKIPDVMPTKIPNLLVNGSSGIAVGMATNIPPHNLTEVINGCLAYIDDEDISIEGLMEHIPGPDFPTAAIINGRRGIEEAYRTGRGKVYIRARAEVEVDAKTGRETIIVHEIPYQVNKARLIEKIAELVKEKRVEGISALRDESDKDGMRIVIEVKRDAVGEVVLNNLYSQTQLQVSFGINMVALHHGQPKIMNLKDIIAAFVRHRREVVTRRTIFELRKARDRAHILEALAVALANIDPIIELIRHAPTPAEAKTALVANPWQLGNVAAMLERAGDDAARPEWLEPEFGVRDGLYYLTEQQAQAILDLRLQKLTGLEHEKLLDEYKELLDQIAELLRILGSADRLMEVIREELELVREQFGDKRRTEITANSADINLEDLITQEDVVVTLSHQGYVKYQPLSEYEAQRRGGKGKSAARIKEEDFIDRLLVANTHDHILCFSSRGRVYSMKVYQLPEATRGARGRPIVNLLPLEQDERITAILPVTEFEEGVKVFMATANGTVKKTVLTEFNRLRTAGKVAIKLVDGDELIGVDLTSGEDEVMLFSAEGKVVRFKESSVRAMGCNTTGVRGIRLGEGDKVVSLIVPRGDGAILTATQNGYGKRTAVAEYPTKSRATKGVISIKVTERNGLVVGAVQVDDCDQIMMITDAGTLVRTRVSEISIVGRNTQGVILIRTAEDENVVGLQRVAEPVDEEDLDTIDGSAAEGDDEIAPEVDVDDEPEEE
UniProt P0A9M0: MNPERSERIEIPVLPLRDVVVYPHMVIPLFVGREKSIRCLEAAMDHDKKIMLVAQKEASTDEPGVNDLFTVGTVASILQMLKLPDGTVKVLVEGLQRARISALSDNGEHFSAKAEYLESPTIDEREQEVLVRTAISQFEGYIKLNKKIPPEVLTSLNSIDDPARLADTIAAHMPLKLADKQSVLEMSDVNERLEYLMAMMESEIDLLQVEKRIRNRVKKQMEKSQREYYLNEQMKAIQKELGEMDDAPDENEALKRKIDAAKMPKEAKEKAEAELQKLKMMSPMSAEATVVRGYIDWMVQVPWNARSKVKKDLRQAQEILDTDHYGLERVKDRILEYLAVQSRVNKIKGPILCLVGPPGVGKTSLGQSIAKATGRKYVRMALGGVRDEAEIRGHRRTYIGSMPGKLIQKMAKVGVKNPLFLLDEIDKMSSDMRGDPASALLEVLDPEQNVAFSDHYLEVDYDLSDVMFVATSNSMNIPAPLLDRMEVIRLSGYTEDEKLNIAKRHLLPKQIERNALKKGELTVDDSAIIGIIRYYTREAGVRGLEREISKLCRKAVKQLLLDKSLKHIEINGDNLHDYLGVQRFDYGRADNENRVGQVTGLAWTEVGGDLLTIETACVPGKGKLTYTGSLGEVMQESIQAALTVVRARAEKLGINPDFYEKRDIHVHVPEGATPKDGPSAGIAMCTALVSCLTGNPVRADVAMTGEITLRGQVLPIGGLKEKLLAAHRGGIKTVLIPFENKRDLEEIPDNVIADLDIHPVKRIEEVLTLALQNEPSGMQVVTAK
UniProt P24215: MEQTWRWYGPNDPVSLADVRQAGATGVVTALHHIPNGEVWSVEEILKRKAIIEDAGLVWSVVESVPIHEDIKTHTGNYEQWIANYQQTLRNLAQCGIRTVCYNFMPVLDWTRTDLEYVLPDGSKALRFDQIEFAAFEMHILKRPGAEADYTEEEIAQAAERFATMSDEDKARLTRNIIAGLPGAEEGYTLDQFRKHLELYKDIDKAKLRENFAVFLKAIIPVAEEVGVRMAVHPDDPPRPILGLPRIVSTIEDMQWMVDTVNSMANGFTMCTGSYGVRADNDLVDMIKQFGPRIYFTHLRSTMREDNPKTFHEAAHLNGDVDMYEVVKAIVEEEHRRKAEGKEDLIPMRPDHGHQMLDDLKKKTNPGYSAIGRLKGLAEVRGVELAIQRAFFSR

Target: HfqTT (TAP-tagged Hfq) (E. coli) (UniProt P0A6X3)
Experiment: affinity purification with mass spectrometry; TAP-tag: HfqTT (or the TAP-tag peptide as control) as bait in extracts of IBhfq95Δhfq, exponential and stationary phase; IgG Sepharose, TEV cleavage, calmodulin beads; half of each sample treated with 0.1 µg/µl RNase A for 30 min at 37 °C before the calmodulin beads; an interaction called RNA dependent when the number of peptides fell by more than 30% after RNase A

Molecule	binding
Chaperone protein dnaK (from UniProt P0A6Y8 1-638)	binds
Tryptophanase (from UniProt P0A853 1-471)	binds
Cysteine synthase A (from UniProt P0ABK5 1-323)	binds
ATP synthase subunit alpha (from UniProt P0ABB0 1-513)	binds
Stringent starvation protein B (from UniProt P0AFZ3 1-165)	binds
HUα (DbhA) (from UniProt P0ACF0 1-90)	binds
Pyruvate deshydrogenase E1 component (from UniProt P0AFG8 1-887)	binds
RecA (from UniProt P0A7G6 1-353)	binds
isocitrate lyase (protein, UniProt P0A9G6 1-434) MKTRTQQIEELQKEWTQPRWEGITRPYSAEDVVKLRGSVNPECTLAQLGAAKMWRLLHGESKKGYINSLGALTGGQALQQAKAGIEAVYLSGWQVAADANLAASMYPDQSLYPANSVPAVVERINNTFRRADQIQWSAGIEPGDPRYVDYFLPIVADAEAGFGGVLNAFELMKAMIEAGAAAVHFEDQLASVKKCGHMGGKVLVPTQEAIQKLVAARLAADVTGVPTLLVARTDADAADLITSDCDPYDSEFITGERTSEGFFRTHAGIEQAISRGLAYAPYADLVWCETSTPDLELARRFAQAIHAKYPGKLLAYNCSPSFNWQKNLDDKTIASFQQQLSDMGYKFQFITLAGIHSMWFNMFDLANAYAQGEGMKHYVEKVQQPEFAAAKDGYTFVSHQQEVGTGYFDKVTTIIQGGTSSVTALTGSTEESQF	binds

Further lines, results first:

binding	Molecule
binds	ATP-dependent protease ATPase subunit hslU (from UniProt P0A6H5 1-443)
binds	Elongation Factor Tu (from UniProt P0CE47)
binds	ATP synthase subunit beta (from UniProt P0ABB4 1-460)
binds	DNA gyrase subunit A (from UniProt P0AES4 1-875)
binds	Lon protease (from UniProt P0A9M0 1-784)
binds	Mannonate dehydratase (from UniProt P24215 1-394)
binds	3-oxoacyl-[acyl-carrier-protein] synthase 1 (protein, UniProt P0A953 1-406) MKRAVITGLGIVSSIGNNQQEVLASLREGRSGITFSQELKDSGMRSHVWGNVKLDTTGLIDRKVVRFMSDASIYAFLSMEQAIADAGLSPEAYQNNPRVGLIAGSGGGSPRFQVFGADAMRGPRGLKAVGPYVVTKAMASGVSACLATPFKIHGVNYSISSACATSAHCIGNAVEQIQLGKQDIVFAGGGEELCWEMACEFDAMGALSTKYNDTPEKASRTYDAHRDGFVIAGGGGMVVVEELEHALARGAHIYAEIVGYGATSDGADMVAPSGEGAVRCMKMAMHGVDTPIDYLNSHGTSTPVGDVKELAAIREVFGDKSPAISATKAMTGHSLGAAGVQEAIYSLLMLEHGFIAPSINIEELDEQAAGLNIVTETTDRELTTVMSNSFGFGGTNATLVMRKLKD
binds	Transcriptional regulatory protein ompR (protein, UniProt P0AA16 1-239) MQENYKILVVDDDMRLRALLERYLTEQGFQVRSVANAEQMDRLLTRESFHLMVLDLMLPGEDGLSICRRLRSQSNPMPIIMVTAKGEEVDRIVGLEIGADDYIPKPFNPRELLARIRAVLRRQANELPGAPSQEEAVIAFGKFKLNLGTREMFREDEPMPLTSGEFAVLKALVSHPREPLSRDKLMNLARGREYSAMERSIDVQISRLRRMVEEDPAHPRYIQTVWGLGYVFVPDGSKA
binds	DNA-binding protein stpA (protein, UniProt P0ACG1 1-134) MSVMLQSLNNIRTLRAMAREFSIDVLEEMLEKFRVVTKERREEEEQQQRELAERQEKISTWLELMKADGINPEELLGNSSAAAPRAGKKRQPRPAKYKFTDVNGETKTWTGQGRTPKPIAQALAEGKSLDDFLI

No constants are given. Whether binding was seen depends on the method and setting. In cells and extracts the contact can be indirect. Here binding means that the protein was enriched with, or labelled near, the bait; the list need not be complete.
